The full ranking holds about 33,000 sequences; the median of “E-score (-0.5 to 0.5)” is about -0.015, and the highest 2% start at about 0.3. Some of the results follow.
Target: T1, Abf1 (UniProt P14164)
T1 sequence: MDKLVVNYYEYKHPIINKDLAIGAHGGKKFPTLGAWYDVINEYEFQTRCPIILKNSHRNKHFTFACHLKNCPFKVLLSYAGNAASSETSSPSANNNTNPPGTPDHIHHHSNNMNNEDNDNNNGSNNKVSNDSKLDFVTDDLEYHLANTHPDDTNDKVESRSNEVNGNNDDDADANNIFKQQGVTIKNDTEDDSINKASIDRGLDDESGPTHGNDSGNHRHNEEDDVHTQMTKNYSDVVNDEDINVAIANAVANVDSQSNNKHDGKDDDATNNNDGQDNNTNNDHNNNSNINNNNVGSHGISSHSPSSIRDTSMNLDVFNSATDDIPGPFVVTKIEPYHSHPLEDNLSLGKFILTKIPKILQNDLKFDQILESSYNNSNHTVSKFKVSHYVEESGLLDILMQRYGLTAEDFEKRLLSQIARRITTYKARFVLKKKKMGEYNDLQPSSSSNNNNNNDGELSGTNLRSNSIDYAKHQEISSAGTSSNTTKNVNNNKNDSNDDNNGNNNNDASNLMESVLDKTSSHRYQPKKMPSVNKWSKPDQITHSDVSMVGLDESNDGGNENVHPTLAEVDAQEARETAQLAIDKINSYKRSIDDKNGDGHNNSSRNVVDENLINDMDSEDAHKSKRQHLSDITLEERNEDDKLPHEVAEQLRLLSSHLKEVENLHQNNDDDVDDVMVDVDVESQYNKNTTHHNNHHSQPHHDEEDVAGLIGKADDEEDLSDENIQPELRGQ
Assay: PBM E-score (8-mer binding enrichment) (E-score (-0.5 to 0.5)); higher = stronger / more preferred TF binding
Details: protein concentration: 200 nM; construct: GST-full length
Method in brief: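 GST-tagged yeast TFs (full-length or DNA-binding domain) were made by PURExpress in vitro transcription/translation and applied at about 100-200 nM to universal all-10-mer Agilent arrays. The arrays were made double-stranded by primer extension, on fresh or once-stripped slides. Bound protein was detected with fluorescent anti-GST, and scans were normalised with masliner. Each ungapped eight-base word, pooled with its reverse complement, received an E-score (modified Wilcoxon-Mann-Whitney statistic) from the Universal PBM Analysis Suite.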

Sequence	PBM E-score
CTGAAGAC	-0.146
CAGCACCG	-0.0675
CGGAGATA	0.062
AGTCCAGA	-0.165
AGGAGCTA	-0.223
ATCCCGTA	0.215
AAGGGATC	-0.0505
ATCGGGAC	-0.145
CGTCTCCA	0.0242
ACAAATAC	0.142
ACAGTAGA	0.0269
AGGGTACG	0.0726
ATCCTAGA	0.0959
ACGTCCCC	-0.0168
AGTGTGAC	0.0994
GGCGCGGA	-0.219
ATAGTCGG	0.0162
CAGTAGGG	-0.225
CCGGACTC	0.00428
AGCTGATG	-0.0224
CCGAAGCC	-0.143
CAGTGCGA	-0.0265
CAGGCTTC	-0.0854
AATTAGTC	0.0846
AATCCCCT	-0.129

Sequence	PBM E-score
GCCCAACA	-0.0999
CAGTACAG	-0.0549
AAAGGATA	0.183
AGCGGTAC	-0.161
ATTGAGAG	-0.0221
ACTGGTCA	0.0755
GATTATAA	0.156
GTCTCAAC	0.0243
AGTCCGAT	-0.0313
AATCACAA	-0.118
AAGGGCAT	-0.231
AATGGAAA	0.0415
CCGGGGAA	-0.232
CGCGAGCC	-0.115
CGGCTCAC	0.0627
GCCGGTCC	-0.369
GCAGAGAA	0.118
ACGCGACA	0.25
GCACTTTA	0.0218
ATCTCGGG	-0.0633
GCAGACCA	-0.179
ACTCCTGC	-0.173
AAGCAGAG	-0.023
ATCGATAG	0.098
GTTTACCA	0.0318

An excerpt of these results, field by field:
AATGGAAA
  PBM E-score: 0.0415
CCGGGGAA
  PBM E-score: -0.232
CGCGAGCC
  PBM E-score: -0.115
CGGCTCAC
  PBM E-score: 0.0627

Going on with the list.

Sequence	PBM E-score
CATCTTAG	-0.151
AGCGTCCC	-0.257
ATGCCAAT	0.0319
GAATAAAC	-0.0354
GTAGGGGA	-0.157
ATCACCTC	0.257
GCGTGGTA	-0.131
ACGAGGAA	0.199
ACGCGACT	-0.0799
CAATACGG	0.228
CCGTCGCA	0.282
ATTGGAGG	-0.104
ACTAGCTC	0.00329
GCGCGTCA	0.0209
CCGTCTCA	-0.064
AATTTATA	0.191
CATGAAGG	-0.125
AGCAAGTG	-0.0415
CATTCGGG	-0.01
CTTGTTAC	0.0567
ATGGTTAA	0.0116
GCATCCAA	-0.245
CGACTACC	-0.146
ATGCGACC	0.109
AAGGCCTT	-0.186

Sequence	PBM E-score
CGGTCACA	-0.103
AATAGTGT	0.129
ACAAAACG	0.099
GAGGTAGC	-0.181
GACTAACA	0.144
CCTCTGTA	-0.0117
AGCAGACC	-0.0678
AAGTCGTG	-0.0223
ACCGGTCC	-0.256
CCAGCAAG	-0.0738
GCCAACAA	-0.216
GGAGGGGA	-0.23
TGCGGTAA	0.0631
CCTATGCC	-0.26
CACGGCCA	-0.0177
CTGGAGGA	-0.202
CTTGAATC	0.0688
CCGACGAG	0.251
CGGGGCAG	-0.12
TCATAGCA	0.092
GAGAACTA	-0.0636
CACCCAAG	-0.121
CAAGATCC	0.074
CGTGCTGA	0.0774
AGCCTTAC	-0.287

Sequence	PBM E-score
TACCCCCA	-0.18
CCGAGGGC	-0.00644
GATCCTGA	-0.0903
CAGCATCC	-0.306
GCCGGGAA	0.00635
AAACGACG	0.238
AACCTAGG	-0.0738
ACACGTAA	0.0183
TGCCTTAA	-0.0923
CTACTACC	-0.00884
GGTTAAAA	0.0506
GTACAGAA	0.153
CTCACGCC	-0.185
AACCCGCC	-0.0773
GTGATGTA	0.399
GGGAGACC	-0.325
GTCGCCCA	-0.208
ATATAGGG	-0.112
CACACTGA	-0.0245
AGATGTGG	-0.173
AGCATGAC	-0.0121
CTGAGTCC	-0.145
CTTGTCAC	0.357
CGTGGGTA	0.0345
GAAAGGGC	-0.17

Sequence	PBM E-score
AAGACAAG	0.0955
GCAAGTAC	-0.0914
AATCGATC	-0.0213
GCAAGGCC	-0.415
CGCTAACG	0.243
TTCTCCAA	-0.0244
AATTGTTC	0.181
TAGTCTAA	-0.183
CCGAGCGC	-0.144
ATATCCAA	0.149
CCTAAACA	-0.224
AGATGTAA	0.0924
CCCCTGAG	-0.24
CATACAGG	-0.0965
ATATCAAG	0.148
ATAAAGCA	0.112
CGGTCCAA	-0.106
ACTGAGGG	-0.184
CTATCATC	0.151
CGTGATCA	0.379
AGGAACTA	0.0321
ATGCCAGG	-0.254
ATAGGAAG	-0.0411
TCCACGGA	0.163
ATATGCCC	-0.0568

Sequence	PBM E-score
AATCGTTA	0.177
GGCGCTGA	-0.0497
ACATGTCG	0.0418
ATCATGGC	0.12
ACTATGGG	-0.21
ACTTGGTC	-0.00376
CCGCCACG	-0.00933
CACCGTTC	0.256
GTTTTCAA	0.118
GGAGCATA	0.0153
AAGCATAC	-0.017
ACTGCCAC	-0.0933
AGTCGTCC	0.142
AAAATGCG	-0.0811
CAAGGCGC	-0.14
ACTGAGCT	-0.153
CTGAGATA	0.126
AAAGACTT	-0.0275
GTCAATGA	-0.0247
GGGAAAGA	-0.112
GGGTGCAA	-0.171
TAAAGATA	0.22

Pulled one by one from the entries so far:
Sequence	PBM E-score
AAGCATAC	-0.017
AGTCGTCC	0.142
GGGTGCAA	-0.171
